Reference: doi:10.1101/2021.09.14.460283

The chains behind the UniProt entries cited, without tags or fusion partners.
UniProt P50613: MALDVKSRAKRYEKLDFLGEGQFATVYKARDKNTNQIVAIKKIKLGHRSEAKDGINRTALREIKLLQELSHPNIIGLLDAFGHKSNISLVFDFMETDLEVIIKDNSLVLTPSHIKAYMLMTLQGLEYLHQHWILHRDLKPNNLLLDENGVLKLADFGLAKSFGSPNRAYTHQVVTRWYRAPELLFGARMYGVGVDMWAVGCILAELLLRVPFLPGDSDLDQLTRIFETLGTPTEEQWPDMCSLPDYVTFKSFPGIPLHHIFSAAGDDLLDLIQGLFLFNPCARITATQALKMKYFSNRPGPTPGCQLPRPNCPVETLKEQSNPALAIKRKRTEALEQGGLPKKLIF
UniProt Q9UHD2: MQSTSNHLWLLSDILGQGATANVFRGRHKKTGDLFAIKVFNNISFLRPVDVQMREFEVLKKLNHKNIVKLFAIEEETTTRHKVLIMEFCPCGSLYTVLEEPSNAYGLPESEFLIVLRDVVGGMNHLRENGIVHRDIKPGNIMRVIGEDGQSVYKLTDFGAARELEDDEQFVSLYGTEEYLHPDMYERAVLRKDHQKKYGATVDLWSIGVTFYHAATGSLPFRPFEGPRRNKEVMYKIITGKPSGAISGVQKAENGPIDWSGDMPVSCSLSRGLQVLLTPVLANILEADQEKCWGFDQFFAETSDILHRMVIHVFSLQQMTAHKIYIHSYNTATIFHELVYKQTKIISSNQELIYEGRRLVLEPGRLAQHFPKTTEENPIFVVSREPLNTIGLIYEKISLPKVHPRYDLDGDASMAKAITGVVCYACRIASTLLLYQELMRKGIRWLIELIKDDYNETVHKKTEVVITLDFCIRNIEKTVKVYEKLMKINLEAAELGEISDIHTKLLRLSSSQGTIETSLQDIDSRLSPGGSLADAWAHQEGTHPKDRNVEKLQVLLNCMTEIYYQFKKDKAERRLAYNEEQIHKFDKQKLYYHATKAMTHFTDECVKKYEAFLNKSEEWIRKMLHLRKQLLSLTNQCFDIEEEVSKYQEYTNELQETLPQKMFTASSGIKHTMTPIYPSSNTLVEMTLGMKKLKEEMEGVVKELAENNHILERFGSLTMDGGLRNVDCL
UniProt Q9NYV4: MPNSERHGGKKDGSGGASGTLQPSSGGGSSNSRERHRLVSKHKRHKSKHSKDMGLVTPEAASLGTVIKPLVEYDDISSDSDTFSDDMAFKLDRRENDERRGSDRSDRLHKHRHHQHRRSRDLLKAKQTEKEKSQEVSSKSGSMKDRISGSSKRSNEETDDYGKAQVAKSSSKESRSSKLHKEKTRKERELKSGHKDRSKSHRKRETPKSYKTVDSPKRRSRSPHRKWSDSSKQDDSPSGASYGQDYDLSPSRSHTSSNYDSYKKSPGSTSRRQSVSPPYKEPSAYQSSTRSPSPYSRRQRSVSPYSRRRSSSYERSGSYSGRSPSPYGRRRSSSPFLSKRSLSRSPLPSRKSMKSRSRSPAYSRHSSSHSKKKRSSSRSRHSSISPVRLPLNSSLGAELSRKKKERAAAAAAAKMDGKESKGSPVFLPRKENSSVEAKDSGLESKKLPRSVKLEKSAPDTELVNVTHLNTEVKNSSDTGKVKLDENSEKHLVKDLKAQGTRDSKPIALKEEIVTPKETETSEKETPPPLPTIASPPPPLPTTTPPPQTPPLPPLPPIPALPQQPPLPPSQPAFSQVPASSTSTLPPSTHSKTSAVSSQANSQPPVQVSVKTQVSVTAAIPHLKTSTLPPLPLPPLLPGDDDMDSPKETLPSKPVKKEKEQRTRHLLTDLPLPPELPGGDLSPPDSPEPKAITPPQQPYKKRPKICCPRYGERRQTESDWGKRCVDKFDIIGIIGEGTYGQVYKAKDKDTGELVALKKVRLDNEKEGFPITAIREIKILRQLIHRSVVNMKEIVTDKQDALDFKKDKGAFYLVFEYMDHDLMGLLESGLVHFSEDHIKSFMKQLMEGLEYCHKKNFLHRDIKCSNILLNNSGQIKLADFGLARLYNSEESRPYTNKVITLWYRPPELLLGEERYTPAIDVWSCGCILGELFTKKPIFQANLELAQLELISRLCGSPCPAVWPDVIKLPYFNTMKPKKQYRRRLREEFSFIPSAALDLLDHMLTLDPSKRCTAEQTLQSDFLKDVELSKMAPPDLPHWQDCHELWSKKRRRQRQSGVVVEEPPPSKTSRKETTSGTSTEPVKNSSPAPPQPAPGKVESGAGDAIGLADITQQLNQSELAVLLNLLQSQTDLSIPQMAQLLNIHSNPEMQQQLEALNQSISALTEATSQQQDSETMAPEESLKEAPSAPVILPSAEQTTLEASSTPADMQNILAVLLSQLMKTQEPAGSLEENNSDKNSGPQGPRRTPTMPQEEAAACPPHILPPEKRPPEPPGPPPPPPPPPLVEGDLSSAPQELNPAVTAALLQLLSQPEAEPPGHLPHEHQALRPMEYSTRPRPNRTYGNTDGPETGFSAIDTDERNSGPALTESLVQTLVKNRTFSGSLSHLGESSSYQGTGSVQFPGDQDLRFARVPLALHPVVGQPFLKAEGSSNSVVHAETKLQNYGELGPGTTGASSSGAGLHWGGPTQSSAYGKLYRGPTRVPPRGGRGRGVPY
UniProt P41240: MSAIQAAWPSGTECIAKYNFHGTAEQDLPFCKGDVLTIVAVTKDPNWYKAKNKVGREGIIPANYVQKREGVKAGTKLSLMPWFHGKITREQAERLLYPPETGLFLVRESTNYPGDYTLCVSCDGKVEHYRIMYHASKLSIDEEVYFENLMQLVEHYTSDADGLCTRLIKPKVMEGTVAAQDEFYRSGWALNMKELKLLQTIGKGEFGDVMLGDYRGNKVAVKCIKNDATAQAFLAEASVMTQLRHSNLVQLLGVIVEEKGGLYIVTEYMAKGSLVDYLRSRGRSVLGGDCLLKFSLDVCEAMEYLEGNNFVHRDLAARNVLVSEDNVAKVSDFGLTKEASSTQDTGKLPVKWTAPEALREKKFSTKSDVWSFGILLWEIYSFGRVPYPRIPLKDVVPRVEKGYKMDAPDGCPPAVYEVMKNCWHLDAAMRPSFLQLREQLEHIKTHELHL
UniProt Q2M2I8: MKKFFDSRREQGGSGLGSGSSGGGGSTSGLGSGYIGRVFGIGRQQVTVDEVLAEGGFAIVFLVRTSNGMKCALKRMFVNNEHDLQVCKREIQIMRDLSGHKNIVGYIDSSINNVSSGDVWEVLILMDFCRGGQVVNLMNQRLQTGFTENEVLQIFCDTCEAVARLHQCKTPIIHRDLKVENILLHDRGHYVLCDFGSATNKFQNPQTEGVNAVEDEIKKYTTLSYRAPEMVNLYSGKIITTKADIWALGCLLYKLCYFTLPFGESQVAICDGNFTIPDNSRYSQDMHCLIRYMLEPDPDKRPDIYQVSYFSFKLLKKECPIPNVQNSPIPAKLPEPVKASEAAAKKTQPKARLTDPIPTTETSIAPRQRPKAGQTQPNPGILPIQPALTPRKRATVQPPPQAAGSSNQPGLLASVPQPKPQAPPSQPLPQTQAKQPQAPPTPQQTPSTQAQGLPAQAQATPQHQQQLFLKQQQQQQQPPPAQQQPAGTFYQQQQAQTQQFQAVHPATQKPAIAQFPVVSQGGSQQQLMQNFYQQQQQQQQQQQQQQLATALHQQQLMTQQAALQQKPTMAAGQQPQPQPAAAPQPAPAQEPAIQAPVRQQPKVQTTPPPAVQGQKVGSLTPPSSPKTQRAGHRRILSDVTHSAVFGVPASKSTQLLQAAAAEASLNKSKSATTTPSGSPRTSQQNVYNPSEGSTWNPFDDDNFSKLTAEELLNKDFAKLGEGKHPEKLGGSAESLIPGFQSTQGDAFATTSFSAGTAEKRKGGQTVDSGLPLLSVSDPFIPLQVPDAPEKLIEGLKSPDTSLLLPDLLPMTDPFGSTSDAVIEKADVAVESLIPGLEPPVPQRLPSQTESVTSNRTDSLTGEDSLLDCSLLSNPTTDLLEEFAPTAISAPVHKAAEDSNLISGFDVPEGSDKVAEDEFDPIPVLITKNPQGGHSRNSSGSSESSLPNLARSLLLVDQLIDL

How the values were obtained:
Assay in all cases: affinity purification with mass spectrometry
[1] = target: CDK7 (human (endogenous in HeLa)) (UniProt P50613)
[2] = target: TBK1 (human (endogenous in HeLa and FOCUS)) (UniProt Q9UHD2)
[3] = target: CDK12 (human (endogenous in HeLa)) (UniProt Q9NYV4)
[4] = target: EGFR (human (endogenous in HeLa)) (UniProt P00533)
[5] = target: CSK (human (endogenous in Jurkat, FOCUS and other cancer cell lines)) (UniProt P41240)
[6] = target: adapter-associated kinase 1 (AAK1) (human (endogenous in FOCUS)) (UniProt Q2M2I8)

B1: GTF2H4 (protein, UniProt Q92759 1-462)
chain: MESTPSRGLNRVHLQCRNLQEFLGGLSPGVLDRLYGHPATCLAVFRELPSLAKNWVMRMLFLEQPLPQAAVALWVKKEFSKAQEESTGLLSGLRIWHTQLLPGGLQGLILNPIFRQNLRIALLGGGKAWSDDTSQLGPDKHARDVPSLDKYAEERWEVVLHFMVGSPSAAVSQDLAQLLSQAGLMKSTEPGEPPCITSAGFQFLLLDTPAQLWYFMLQYLQTAQSRGMDLVEILSFLFQLSFSTLGKDYSVEGMSDSLLNFLQHLREFGLVFQRKRKSRRYYPTRLAINLSSGVSGAGGTVHQPGFIVVETNYRLYAYTESELQIALIALFSEMLYRFPNMVVAQVTRESVQQAIASGITAQQIIHFLRTRAHPVMLKQTPVLPPTITDQIRLWELERDRLRFTEGVLYNQFLSQVDFELLLAHARELGVLVFENSAKRLMVVTPAGHSDVKRFWKRQKHSS
- binding [1]: binds

B2: TANK (protein, UniProt Q92844 1-425)
chain: MDKNIGEQLNKAYEAFRQACMDRDSAVKELQQKTENYEQRIREQQEQLSLQQTIIDKLKSQLLLVNSTQDNNYGCVPLLEDSETRKNNLTLDQPQDKVISGIAREKLPKVRRQEVSSPRKETSARSLGSPLLHERGNIEKTFWDLKEEFHKICMLAKAQKDHLSKLNIPDTATETQCSVPIQCTDKTDKQEALFKPQAKDDINRGAPSITSVTPRGLCRDEEDTSFESLSKFNVKFPPMDNDSTFLHSTPERPGILSPATSEAVCQEKFNMEFRDNPGNFVKTEETLFEIQGIDPIASAIQNLKTTDKTKPSNLVNTCIRTTLDRAACLPPGDHNALYVNSFPLLDPSDAPFPSLDSPGKAIRGPQQPIWKPFPNQDSDSVVLSGTDSELHIPRVCEFCQAVFPPSITSRGDFLRHLNSHFNGET
- binding [2]: binds

B3: Arcadia (RNF111) (protein, UniProt Q6ZNA4 1-994)
chain: MSQWTPEYNELYTLKVDMKSEIPSDAPKTQESLKGILLHPEPIGAAKSFPAGVEMINSKVGNEFSHLCDDSQKQEKEMNGNQQEQEKSLVVRKKRKSQQAGPSYVQNCVKENQGILGLRQHLGTPSDEDNDSSFSDCLSSPSSSLHFGDSDTVTSDEDKEVSVRHSQTILNAKSRSHSARSHKWPRTETESVSGLLMKRPCLHGSSLRRLPCRKRFVKNNSSQRTQKQKERILMQRKKREVLARRKYALLPSSSSSSENDLSSESSSSSSTEGEEDLFVSASENHQNNPAVPSGSIDEDVVVIEASSTPQVTANEEINVTSTDSEVEIVTVGESYRSRSTLGHSRSHWSQGSSSHASRPQEPRNRSRISTVIQPLRQNAAEVVDLTVDEDEPTVVPTTSARMESQATSASINNSNPSTSEQASDTASAVTSSQPSTVSETSATLTSNSTTGTSIGDDSRRTTSSAVTETGPPAMPRLPSCCPQHSPCGGSSQNHHALGHPHTSCFQQHGHHFQHHHHHHHTPHPAVPVSPSFSDPACPVERPPQVQAPCGANSSSGTSYHEQQALPVDLSNSGIRSHGSGSFHGASAFDPCCPVSSSRAAIFGHQAAAAAPSQPLSSIDGYGSSMVAQPQPQPPPQPSLSSCRHYMPPPYASLTRPLHHQASACPHSHGNPPPQTQPPPQVDYVIPHPVHAFHSQISSHATSHPVAPPPPTHLASTAAPIPQHLPPTHQPISHHIPATAPPAQRLHPHEVMQRMEVQRRRMMQHPTRAHERPPPHPHRMHPNYGHGHHIHVPQTMSSHPRQAPERSAWELGIEAGVTAATYTPGALHPHLAHYHAPPRLHHLQLGALPLMVPDMAGYPHIRYISSGLDGTSFRGPFRGNFEELIHLEERLGNVNRGASQGTIERCTYPHKYKKVTTDWFSQRKLHCKQDGEEGTEEDTEEKCTICLSILEEGEDVRRLPCMHLFHQVCVDQWLITNKKCPICRVDIEAQLPSES
- binding [3]: binds

B4: VAV3 (protein, UniProt Q9UKW4 1-847)
chain: MEPWKQCAQWLIHCKVLPTNHRVTWDSAQVFDLAQTLRDGVLLCQLLNNLRAHSINLKEINLRPQMSQFLCLKNIRTFLTACCETFGMRKSELFEAFDLFDVRDFGKVIETLSRLSRTPIALATGIRPFPTEESINDEDIYKGLPDLIDETLVEDEEDLYDCVYGEDEGGEVYEDLMKAEEAHQPKCPENDIRSCCLAEIKQTEEKYTETLESIEKYFMAPLKRFLTAAEFDSVFINIPELVKLHRNLMQEIHDSIVNKNDQNLYQVFINYKERLVIYGQYCSGVESAISSLDYISKTKEDVKLKLEECSKRANNGKFTLRDLLVVPMQRVLKYHLLLQELVKHTTDPTEKANLKLALDAMKDLAQYVNEVKRDNETLREIKQFQLSIENLNQPVLLFGRPQGDGEIRITTLDKHTKQERHIFLFDLAVIVCKRKGDNYEMKEIIDLQQYKIANNPTTDKENKKWSYGFYLIHTQGQNGLEFYCKTKDLKKKWLEQFEMALSNIRPDYADSNFHDFKMHTFTRVTSCKVCQMLLRGTFYQGYLCFKCGARAHKECLGRVDNCGRVNSGEQGTLKLPEKRTNGLRRTPKQVDPGLPKMQVIRNYSGTPPPALHEGPPLQLQAGDTVELLKGDAHSLFWQGRNLASGEVGFFPSDAVKPCPCVPKPVDYSCQPWYAGAMERLQAETELINRVNSTYLVRHRTKESGEYAISIKYNNEAKHIKILTRDGFFHIAENRKFKSLMELVEYYKHHSLKEGFRTLDTTLQFPYKEPEHSAGQRGNRAGNSLLSPKVLGIAIARYDFCARDMRELSLLKGDVVKIYTKMSANGWWRGEVNGRVGWFPSTYVEEDE
- binding [4]: binds

B5: UBASH3A (protein, UniProt P57075 1-661)
chain: MAAGETQLYAKVSNKLKSRSSPSLLEPLLAMGFPVHTALKALAATGRKTAEEALAWLHDHCNDPSLDDPIPQEYALFLCPTGPLLEKLQEFWRESKRQCAKNRAHEVFPHVTLCDFFTCEDQKVECLYEALKRAGDRLLGSFPTAVPLALHSSISYLGFFVSGSPADVIREFAMTFATEASLLAGTSVSRFWIFSQVPGHGPNLRLSNLTRASFVSHYILQKYCSVKPCTKQLHLTLAHKFYPHHQRTLEQLARAIPLGHSCQWTAALYSRDMRFVHYQTLRALFQYKPQNVDELTLSPGDYIFVDPTQQDEASEGWVIGISQRTGCRGFLPENYTDRASESDTWVKHRMYTFSLATDLNSRKDGEASSRCSGEFLPQTARSLSSLQALQATVARKSVLVVRHGERVDQIFGKAWLQQCSTPDGKYYRPDLNFPCSLPRRSRGIKDFENDPPLSSCGIFQSRIAGDALLDSGIRISSVFASPALRCVQTAKLILEELKLEKKIKIRVEPGIFEWTKWEAGKTTPTLMSLEELKEANFNIDTDYRPAFPLSALMPAESYQEYMDRCTASMVQIVNTCPQDTGVILIVSHGSTLDSCTRPLLGLPPRECGDFAQLVRKIPSLGMCFCEENKEEGKWELVNPPVKTLTHGANAAFNWRNWISGN
- binding [5]: binds

B6: REPS1 (protein, UniProt Q96D71 1-796)
chain: MEGLTLSDAEQKYYSDLFSYCDIESTKKVVVNGRVLELFRAAQLPNDVVLQIMELCGATRLGYFGRSQFYIALKLVAVAQSGFPLRVESINTVKDLPLPRFVASKNEQESRHAASYSSDSENQGSYSGVIPPPPGRGQVKKGSVSHDTVQPRTSADAQEPASPVVSPQQSPPTSPHTWRKHSRHPSGGNSERPLAGPGPFWSPFGEAQSGSSAGDAVWSGHSPPPPQENWVSFADTPPTSTLLTMHPASVQDQTTVRTVASATTAIEIRRQSSSYDDPWKITDEQRQYYVNQFKTIQPDLNGFIPGSAAKEFFTKSKLPILELSHIWELSDFDKDGALTLDEFCAAFHLVVARKNGYDLPEKLPESLMPKLIDLEDSADVGDQPGEVGYSGSPAEAPPSKSPSMPSLNQTWPELNQSSEQWETFSERSSSSQTLTQFDSNIAPADPDTAIVHPVPIRMTPSKIHMQEMELKRTGSDHTNPTSPLLVKPSDLLEENKINSSVKFASGNTVADGYSSSDSFTSDPEQIGSNVTRQRSHSGTSPDNTAPPPPPPRPQPSHSRSSSLDMNRTFTVTTGQQQAGVVAHPPAVPPRPQPSQAPGPAVHRPVDADGLITHTSTSPQQIPEQPNFADFSQFEVFAASNVNDEQDDEAEKHPEVLPAEKASDPASSLRVAKTDSKTEEKTAASAPANVSKGTTPLAPPPKPVRRRLKSEDELRPEVDEHTQKTGVLAAVLASQPSIPRSVGKDKKAIQASIRRNKETNTVLARLNSELQQQLKDVLEERISLEVQLEQLRPFSHL
- binding [6]: binds

B7: REPS2 (protein, UniProt Q8NFH8 1-660)
chain: MEAAAAAAAAAAAAAAAGGGCGSGPPPLLLSEGEQQCYSELFARCAGAAGGGPGSGPPEAARVAPGTATAAAGPVADLFRASQLPAETLHQITELCGAKRVGYFGPTQFYIALKLIAAAQSGLPVRIESIKCELPLPRFMMSKNDGEIRFGNPAELHGTKVQIPYLTTEKNSFKRMDDEDKQQETQSPTMSPLASPPSSPPHYQRVPLSHGYSKLRSSAEQMHPAPYEARQPLVQPEGSSSGGPGTKPLRHQASLIRSFSVERELQDNSSYPDEPWRITEEQREYYVNQFRSLQPDPSSFISGSVAKNFFTKSKLSIPELSYIWELSDADCDGALTLPEFCAAFHLIVARKNGYPLPEGLPPTLQPEYLQAAFPKPKWDCQLFDSYSESLPANQQPRDLNRMEKTSVKDMADLPVPNQDVTSDDKQALKSTINEALPKDVSEDPATPKDSNSLKARPRSRSYSSTSIEEAMKRGEDPPTPPPRPQKTHSRASSLDLNKVFQPSVPATKSGLLPPPPALPPRPCPSQSEQVSEAELLPQLSRAPSQAAESSPAKKDVLYSQPPSKPIRRKFRPENQATENQEPSTAASGPASAATMKPHPTVQKQSSKQKKAIQTAIRKNKEANAVLARLNSELQQQLKEVHQERIALENQLEQLRPVTVL
- binding [6]: binds

These are yes or no findings as the source states them, for the method shown. In cells and extracts the contact can be indirect. A yes stands for co-enrichment or nearness to the bait. Other partners may have been found.
